Measurements reported in PubChem BioAssay AID1671195 (Yale University, 2021)

Aim: 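Genes whose knockdown alters LDL uptake in liver cancer cells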 (primary screen)
System: human Huh7 hepatoma cells
Reagents: siRNA pool against human genes, 18 nM
Duration: about 2 to 2.5 days of knockdown, then 8 h LDL uptake
Treatment: DiI-labelled LDL at 30 µg/ml for 8 h, in lipoprotein-deficient serum medium
Read-out: 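Per-cell DiI-LDL intensity by automated imaging; well means scaled to the plate median and given as a robust z-score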
Direction: robust z-score: higher = more LDL uptake after knockdown
Hit rule: 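Active when two or more replicates show a robust z-score above 2 or below -2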
Shown is one part, drawn at random, of about 22,000 reagents tested. Over the whole deposit, about 1,510 (6.9%) were called active. 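Active includes knockdowns raising or lowering LDL uptake; positive z-scores mean more uptake, negative mean less.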 No sequences are given here.

| target | robust z-score, replicate 1 | robust z-score, replicate 2 | robust z-score, replicate 3 | call |
| --- | --- | --- | --- | --- |
| LOC400832 (retired record) | -0.00556 | -0.533 | -0.296 | inactive |
| LOC388751 (retired record) | 0.183 | -0.188 | 0.567 | inactive |
| TAC4 | 1.55 | 1.45 | 1.23 | inactive |
| RNF26 | -0.836 | -1.47 | -0.281 | inactive |
| LOC442081 (retired record) | -0.154 | -0.103 | -0.385 | inactive |
| LOC401085 (retired record) | 0.547 | 0.312 | 0.516 | inactive |
| IGSF1 | -0.94 | -0.24 | 0.0137 | inactive |
| IGFL3 | -1.02 | -0.957 | -0.965 | inactive |
| DYNC2I1 | -1.06 | 0.316 | -0.656 | inactive |
| SIM1 | -0.439 | 0.0209 | 0.197 | inactive |
| TNIP2 | 0.304 | 0.671 | 0.694 | inactive |
| MICALL1 | -0.0853 | 0.251 | 0.555 | inactive |
| SNRPA1 | 1.17 | 1.01 | 1.05 | inactive |
| CDK2 | -0.537 | -0.228 | -0.296 | inactive |
| FIGN | 0.708 | 1.86 | 0.729 | inactive |
| NTPCR | -0.00461 | 0.278 | -0.109 | inactive |
| PDCL | 0.45 | -1.5 | -1.3 | inactive |
| ATP5ME | -0.185 | 0.0152 | 0.00481 | inactive |
| MYADML2 | -0.247 | -0.0899 | -0.362 | inactive |
| CYBC1 | 0.402 | -0.692 | 0.441 | inactive |
| HAUS5 | 0.854 | -0.874 | -0.0761 | inactive |
| FOLH1B | 0.445 | -0.0611 | 0.706 | inactive |
| DOCK1 | 0.329 | 0.236 | 0.0903 | inactive |

Continued, starting with the last 6 of the part before.
| target | robust z-score, replicate 1 | robust z-score, replicate 2 | robust z-score, replicate 3 | call |
| --- | --- | --- | --- | --- |
| ATP5ME | -0.185 | 0.0152 | 0.00481 | inactive |
| MYADML2 | -0.247 | -0.0899 | -0.362 | inactive |
| CYBC1 | 0.402 | -0.692 | 0.441 | inactive |
| HAUS5 | 0.854 | -0.874 | -0.0761 | inactive |
| FOLH1B | 0.445 | -0.0611 | 0.706 | inactive |
| DOCK1 | 0.329 | 0.236 | 0.0903 | inactive |
| ZNF366 | 0.933 | 0.474 | 0.489 | inactive |
| ZNF385B | 0.543 | 0.541 | 0.255 | inactive |
| LOC440998 (retired record) | 1.61 | 1.31 | 1.82 | inactive |
| MAP3K9 | -2.76 | -2.67 | -2.81 | active |
| SLC35E3 | -1.07 | -0.338 | -0.588 | inactive |
| CABP7 | -0.092 | 0.37 | -0.0815 | inactive |
| GPC5 | -0.923 | -0.642 | -0.707 | inactive |
| NPRL3 | -1.59 | -0.702 | 0.337 | inactive |
| TULP4 | -0.899 | -1.43 | -1.24 | inactive |
| EVI5L | 0.736 | 0.325 | 0.691 | inactive |
| FNBP1 | 3.51 | 2.42 | 4.72 | active |
| CHP2 | -0.729 | -1.42 | 0.00197 | inactive |
| GBE1 | 1.45 | 0.932 | 1.6 | inactive |
| NUP205 | 0.663 | 0.735 | 0.851 | inactive |
| MAN1B1 | 0.47 | -0.357 | -1.33 | inactive |
| HIPK2 | -1.01 | -0.459 | -0.0401 | inactive |
| LOC440512 (retired record) | 0.593 | 0.0658 | 0.0968 | inactive |
| MIEN1 | -0.588 | -0.522 | -0.754 | inactive |
| SLC22A15 | -1.02 | -1.06 | -0.903 | inactive |
| EXOG | -1.19 | -0.937 | -1.23 | inactive |
| MMP16 | -1.12 | -0.584 | -0.621 | inactive |
| TAF1A | 4.12 | 1.19 | 1.96 | active |
| PHOX2B | 0.954 | 1.97 | 1.59 | inactive |
| GPR35 | 1.43 | 0.844 | 0.969 | inactive |
| HBD | 1.73 | -0.267 | -2.43 | inactive |
| RPL8 | -1.49 | -0.676 | -1.46 | inactive |
| TCEANC2 | 1.44 | 1.09 | 0.392 | inactive |
| SAP130 | -0.168 | -0.245 | 0.0934 | inactive |
| EFCAB3 | 0.871 | 0.95 | -0.104 | inactive |
| OR1E2 | 0.15 | 0.667 | -0.104 | inactive |
| CENPN | 0.061 | -1.44 | 0.191 | inactive |
| LOC389772 (retired record) | 1.38 | 0.776 | 1.45 | inactive |
| ZNF667-AS1 | -0.256 | -0.123 | -0.304 | inactive |
| FCRLA | -0.305 | -0.699 | -0.55 | inactive |
| FANCI | -0.998 | -0.107 | 0.302 | inactive |
| GTF3C6 | 1.79 | 0.302 | -0.0643 | inactive |
| ZPLD1 | 1.91 | 1.66 | 1.79 | inactive |
| ADGRG3 | 0.965 | 2.81 | 2 | active |
| RABEP2 | -0.827 | -1.02 | -0.863 | inactive |
| LOC389443 (retired record) | 2 | 1.9 | 1.28 | active |
| DOT1L | -0.562 | -0.673 | -0.418 | inactive |
| PON3 | 0.447 | 1 | -2.14 | inactive |
| LOC441036 (retired record) | 0.627 | -0.0751 | -0.0757 | inactive |
| DOCK8 | 0.127 | 0.217 | 0.262 | inactive |
| PPP1R3F | 1.55 | 1.17 | 1.34 | inactive |
